From PMC11811183
Results are given in words; binding and its absence hold for the method and conditions named. Binding seen in cells or lysates may run through a third protein. Here binding means that the protein was enriched with, or labelled near, the bait; the list need not be complete.

Amino acid sequences for entries named in this document (tags omitted).
UniProt Q8VBV4: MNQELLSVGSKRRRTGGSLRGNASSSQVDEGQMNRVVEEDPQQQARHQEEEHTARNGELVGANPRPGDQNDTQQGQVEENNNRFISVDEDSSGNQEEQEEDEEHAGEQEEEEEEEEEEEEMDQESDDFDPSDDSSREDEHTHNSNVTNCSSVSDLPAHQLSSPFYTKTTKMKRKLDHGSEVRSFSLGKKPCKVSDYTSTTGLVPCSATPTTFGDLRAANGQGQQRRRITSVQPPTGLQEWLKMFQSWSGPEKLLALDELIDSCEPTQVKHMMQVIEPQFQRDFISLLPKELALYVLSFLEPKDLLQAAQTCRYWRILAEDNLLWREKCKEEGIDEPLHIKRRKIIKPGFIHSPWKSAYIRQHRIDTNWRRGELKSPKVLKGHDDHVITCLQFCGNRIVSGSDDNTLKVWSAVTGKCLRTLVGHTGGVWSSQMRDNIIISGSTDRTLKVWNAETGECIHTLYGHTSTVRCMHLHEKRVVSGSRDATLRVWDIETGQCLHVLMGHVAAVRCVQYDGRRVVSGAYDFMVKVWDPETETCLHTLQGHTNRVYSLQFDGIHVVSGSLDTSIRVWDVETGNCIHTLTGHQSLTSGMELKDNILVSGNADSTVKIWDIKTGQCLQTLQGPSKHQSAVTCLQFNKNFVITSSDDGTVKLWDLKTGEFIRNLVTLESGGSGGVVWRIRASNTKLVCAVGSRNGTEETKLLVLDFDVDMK
UniProt Q8BSK8: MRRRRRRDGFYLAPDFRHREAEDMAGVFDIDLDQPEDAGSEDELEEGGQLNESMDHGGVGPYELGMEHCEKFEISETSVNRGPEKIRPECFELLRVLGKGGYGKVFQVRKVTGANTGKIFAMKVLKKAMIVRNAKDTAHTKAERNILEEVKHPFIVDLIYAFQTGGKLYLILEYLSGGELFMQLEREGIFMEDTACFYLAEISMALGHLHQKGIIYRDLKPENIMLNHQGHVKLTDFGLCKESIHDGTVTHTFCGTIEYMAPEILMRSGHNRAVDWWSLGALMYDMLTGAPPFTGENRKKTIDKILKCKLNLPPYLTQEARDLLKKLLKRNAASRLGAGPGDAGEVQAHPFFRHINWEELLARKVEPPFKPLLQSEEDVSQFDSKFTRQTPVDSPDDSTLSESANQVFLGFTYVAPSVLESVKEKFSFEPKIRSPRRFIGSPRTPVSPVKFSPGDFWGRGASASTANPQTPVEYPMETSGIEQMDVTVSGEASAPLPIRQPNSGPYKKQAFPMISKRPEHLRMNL

Target: FBXW7 overexpressed by adenovirus (ADV-FBXW7) (UniProt Q8VBV4)
Experiment: affinity purification with mass spectrometry; mature brown adipocytes infected with ADV-FBXW7 for 48 h; lysate with anti-FBXW7 or anti-IgG and protein A/G beads overnight at 4 °C; SDS-PAGE, silver staining, LC-MS

For “S6K1 (endogenous) (from UniProt Q8BSK8 1-525)”, the binding was “binds”.
